Experiment in all cases: pull-down; GST-Rab5 (Q79L) incubated with purified His-vinculin deletion mutants, His-pull-down; beads assayed by western blot; both purified
In general terms: A western blot detects proteins with antibodies after separation by electrophoresis.

By UniProt entry, the sequences of proteins in these tests, tags left out. Where a name states a change or a piece, a line headed by the entry shows the natural chain unless it says otherwise.
UniProt P20339: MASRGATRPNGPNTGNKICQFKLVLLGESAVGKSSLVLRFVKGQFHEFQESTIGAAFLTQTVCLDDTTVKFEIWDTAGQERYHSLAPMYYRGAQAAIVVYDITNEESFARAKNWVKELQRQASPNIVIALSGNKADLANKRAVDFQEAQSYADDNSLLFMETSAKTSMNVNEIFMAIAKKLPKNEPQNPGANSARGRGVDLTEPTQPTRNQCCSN

For assay [1], the target named is T1, His-vin1-258 (UniProt P12003).
T1 sequence: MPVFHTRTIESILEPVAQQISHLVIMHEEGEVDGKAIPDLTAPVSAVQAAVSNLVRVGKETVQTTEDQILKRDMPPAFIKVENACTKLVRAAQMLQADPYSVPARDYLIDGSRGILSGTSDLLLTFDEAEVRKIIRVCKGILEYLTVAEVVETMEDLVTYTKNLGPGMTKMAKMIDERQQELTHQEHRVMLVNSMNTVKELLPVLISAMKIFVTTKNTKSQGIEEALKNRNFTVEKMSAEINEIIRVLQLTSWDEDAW

Assay [2] addresses T2, His-vin258-880 (UniProt P12003).
T2 sequence: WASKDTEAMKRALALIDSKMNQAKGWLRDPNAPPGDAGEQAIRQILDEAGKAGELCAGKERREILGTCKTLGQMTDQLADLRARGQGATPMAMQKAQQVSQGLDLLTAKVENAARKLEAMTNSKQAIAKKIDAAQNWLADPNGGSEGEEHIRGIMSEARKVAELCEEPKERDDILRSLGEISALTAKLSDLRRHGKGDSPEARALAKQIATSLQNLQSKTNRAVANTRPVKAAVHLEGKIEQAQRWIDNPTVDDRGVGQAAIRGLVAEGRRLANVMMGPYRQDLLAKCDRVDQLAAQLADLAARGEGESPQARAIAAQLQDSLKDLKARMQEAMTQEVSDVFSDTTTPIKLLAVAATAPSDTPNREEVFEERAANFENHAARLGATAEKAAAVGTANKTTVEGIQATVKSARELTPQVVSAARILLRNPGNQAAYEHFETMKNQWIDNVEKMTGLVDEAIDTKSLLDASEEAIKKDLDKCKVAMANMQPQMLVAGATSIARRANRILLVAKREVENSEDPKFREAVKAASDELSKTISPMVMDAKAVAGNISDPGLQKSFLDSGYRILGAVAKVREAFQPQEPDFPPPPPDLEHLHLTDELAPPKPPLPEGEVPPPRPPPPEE

Assay [3] concerns the target T3, His-vin1-880 (UniProt P12003).
T3 sequence: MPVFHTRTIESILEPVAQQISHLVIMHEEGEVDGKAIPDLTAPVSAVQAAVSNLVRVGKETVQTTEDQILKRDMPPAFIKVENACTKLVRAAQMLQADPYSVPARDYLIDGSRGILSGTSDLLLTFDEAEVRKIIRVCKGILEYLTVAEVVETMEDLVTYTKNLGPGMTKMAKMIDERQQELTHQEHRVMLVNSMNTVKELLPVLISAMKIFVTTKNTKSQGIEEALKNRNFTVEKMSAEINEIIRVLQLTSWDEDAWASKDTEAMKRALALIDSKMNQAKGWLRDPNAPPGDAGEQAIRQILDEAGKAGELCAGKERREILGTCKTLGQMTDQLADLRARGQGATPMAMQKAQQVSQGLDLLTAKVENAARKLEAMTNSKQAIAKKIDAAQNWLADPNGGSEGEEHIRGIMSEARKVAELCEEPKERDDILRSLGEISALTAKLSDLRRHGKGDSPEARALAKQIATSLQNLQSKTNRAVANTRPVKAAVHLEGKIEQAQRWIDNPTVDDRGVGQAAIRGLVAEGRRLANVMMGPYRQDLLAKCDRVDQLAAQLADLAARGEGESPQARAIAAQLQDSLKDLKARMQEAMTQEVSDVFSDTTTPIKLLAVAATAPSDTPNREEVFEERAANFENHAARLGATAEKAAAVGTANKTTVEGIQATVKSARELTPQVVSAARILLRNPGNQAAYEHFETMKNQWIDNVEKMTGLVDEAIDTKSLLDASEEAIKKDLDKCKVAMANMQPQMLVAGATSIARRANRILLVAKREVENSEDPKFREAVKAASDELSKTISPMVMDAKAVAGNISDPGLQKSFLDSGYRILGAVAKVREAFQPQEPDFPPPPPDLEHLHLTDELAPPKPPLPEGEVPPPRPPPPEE

Our source for the binding values is publication PMC3900708.

Results are given in words; binding and its absence hold for the method and conditions named. Some binding calls cover weakened binding; strength is not graded here. Where a sequence is shown, tags or fusion partners need not be part of it.

Consider “GST-Rab5 (Q79L) (from UniProt P20339 1-215)”, for which the binding entry in assay [1] was “binds”; in assay [2] it was “no binding”; in assay [3], “binds”.
